CoaBC: 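Coenzyme A biosynthesis protein CoaBC, Mycobacterium tuberculosis (UniProt P9WNZ1). Enzyme assay of CoaBC with a phosphate dye (Biomol Green) read at 650 nm. Concentration: 30 µM. Higher reads as stronger inhibition, judged from the few compounds that gave an IC50. Most strong results did not repeat in a second test. Size under these conditions: about 67,000 compounds, about 40 of them at 50% or above in at least one test.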
Pks13 thioesterase: 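Polyketide synthase Pks13, Mycobacterium tuberculosis (UniProt I6X8D2). Enzyme assay of the thioesterase domain of polyketide synthase 13; the read-out is not stated. Compounds at 30 µM. The record gives no direction; the compounds picked for IC50 retests had high values, so higher reads as stronger inhibition. Size under these conditions: about 67,000 compounds, about 300 of them at 50% or above in at least one test.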
MtTrpRS: 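Tryptophan-tRNA ligase, Mycobacterium tuberculosis (UniProt P9WFT3). Enzyme assay of tryptophanyl-tRNA synthetase; the read-out is not stated. Concentration: 10 µM. Higher most likely means stronger inhibition; the record gives no direction and few retests gave an IC50. Size under these conditions: about 65,000 compounds, about 64 of them at 50% or above in at least one test.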
LiHisRS: 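Enzyme assay of histidyl-tRNA synthetase; the read-out is not stated. Target: Histidine-tRNA ligase, Leishmania infantum (UniProt A4I591). Compounds at 30 µM. The record gives no direction; compounds that gave an IC50 in retests scored well above the rest, so higher reads as stronger inhibition. The assay is labelled LdHisRS but filed under L. infantum. About 69,000 compounds were tested under these conditions; 0.6% (about 410) showed 50% or more at least once.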

By UniProt entry, the sequences of proteins in these tests, tags left out. Residues count along the entry.
UniProt P9WNZ1, whole entry: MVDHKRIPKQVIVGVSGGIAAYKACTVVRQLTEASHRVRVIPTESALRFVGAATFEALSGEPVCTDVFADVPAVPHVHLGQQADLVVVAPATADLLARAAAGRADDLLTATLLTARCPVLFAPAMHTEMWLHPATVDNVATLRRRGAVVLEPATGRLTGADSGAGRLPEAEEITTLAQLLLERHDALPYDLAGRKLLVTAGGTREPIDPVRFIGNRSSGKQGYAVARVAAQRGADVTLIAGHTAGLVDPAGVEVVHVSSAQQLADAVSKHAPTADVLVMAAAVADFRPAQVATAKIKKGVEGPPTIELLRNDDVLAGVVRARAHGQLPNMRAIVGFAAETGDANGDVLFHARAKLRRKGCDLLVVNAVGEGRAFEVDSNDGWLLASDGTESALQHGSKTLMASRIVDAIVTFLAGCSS
UniProt I6X8D2, whole entry: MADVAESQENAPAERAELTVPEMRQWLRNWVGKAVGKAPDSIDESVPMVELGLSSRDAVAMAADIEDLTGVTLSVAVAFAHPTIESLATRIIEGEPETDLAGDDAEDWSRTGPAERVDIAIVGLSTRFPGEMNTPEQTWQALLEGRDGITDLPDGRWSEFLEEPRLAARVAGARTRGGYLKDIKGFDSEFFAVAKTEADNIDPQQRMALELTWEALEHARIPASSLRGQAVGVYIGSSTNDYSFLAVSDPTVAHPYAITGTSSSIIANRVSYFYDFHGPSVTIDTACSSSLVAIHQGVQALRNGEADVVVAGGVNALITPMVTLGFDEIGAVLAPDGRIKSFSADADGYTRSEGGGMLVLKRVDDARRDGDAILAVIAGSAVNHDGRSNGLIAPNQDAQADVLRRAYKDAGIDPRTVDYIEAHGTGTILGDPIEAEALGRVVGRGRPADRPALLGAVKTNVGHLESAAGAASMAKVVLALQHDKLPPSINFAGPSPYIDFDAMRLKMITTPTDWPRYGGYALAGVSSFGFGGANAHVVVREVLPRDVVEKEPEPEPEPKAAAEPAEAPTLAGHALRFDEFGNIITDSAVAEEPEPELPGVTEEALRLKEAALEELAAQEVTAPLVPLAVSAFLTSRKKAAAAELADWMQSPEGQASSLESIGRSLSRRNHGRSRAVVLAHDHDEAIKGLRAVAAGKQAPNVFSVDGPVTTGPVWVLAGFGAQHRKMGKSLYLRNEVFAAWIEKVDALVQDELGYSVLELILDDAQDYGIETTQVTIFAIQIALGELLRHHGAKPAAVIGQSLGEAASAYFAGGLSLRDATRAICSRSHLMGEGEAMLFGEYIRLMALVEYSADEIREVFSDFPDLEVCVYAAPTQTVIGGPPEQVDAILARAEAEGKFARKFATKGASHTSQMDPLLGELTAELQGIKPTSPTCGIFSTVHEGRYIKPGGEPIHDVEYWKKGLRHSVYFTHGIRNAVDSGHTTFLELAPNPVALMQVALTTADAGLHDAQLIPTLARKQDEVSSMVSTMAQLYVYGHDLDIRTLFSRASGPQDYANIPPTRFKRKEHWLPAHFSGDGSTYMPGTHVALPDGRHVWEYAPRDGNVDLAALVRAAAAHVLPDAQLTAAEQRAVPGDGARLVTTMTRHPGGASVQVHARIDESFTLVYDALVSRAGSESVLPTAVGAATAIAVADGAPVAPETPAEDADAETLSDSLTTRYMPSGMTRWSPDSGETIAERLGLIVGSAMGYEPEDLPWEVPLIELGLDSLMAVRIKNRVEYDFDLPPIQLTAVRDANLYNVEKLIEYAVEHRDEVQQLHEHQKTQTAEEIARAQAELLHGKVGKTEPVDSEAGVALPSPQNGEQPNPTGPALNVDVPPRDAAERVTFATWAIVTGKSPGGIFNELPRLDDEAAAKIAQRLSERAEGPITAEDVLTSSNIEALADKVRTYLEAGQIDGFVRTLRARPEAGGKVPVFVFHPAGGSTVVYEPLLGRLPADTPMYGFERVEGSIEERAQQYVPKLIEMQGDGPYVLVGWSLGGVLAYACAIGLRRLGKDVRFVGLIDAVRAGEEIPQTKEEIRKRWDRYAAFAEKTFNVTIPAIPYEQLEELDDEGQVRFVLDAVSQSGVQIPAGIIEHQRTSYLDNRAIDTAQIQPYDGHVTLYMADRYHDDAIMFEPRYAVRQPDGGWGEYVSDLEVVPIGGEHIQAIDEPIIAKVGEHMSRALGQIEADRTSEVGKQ
UniProt P9WFT3, whole entry: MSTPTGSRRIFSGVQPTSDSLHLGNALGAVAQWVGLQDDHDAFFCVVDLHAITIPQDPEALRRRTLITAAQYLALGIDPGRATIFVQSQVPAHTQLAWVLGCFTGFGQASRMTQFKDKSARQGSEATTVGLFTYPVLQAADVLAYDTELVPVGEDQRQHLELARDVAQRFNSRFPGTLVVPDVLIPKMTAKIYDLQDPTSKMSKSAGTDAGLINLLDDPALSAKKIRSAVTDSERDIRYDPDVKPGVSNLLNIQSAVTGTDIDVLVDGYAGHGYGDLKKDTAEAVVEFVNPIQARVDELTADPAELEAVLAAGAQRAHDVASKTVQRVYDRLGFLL
UniProt A4I591, 1-473: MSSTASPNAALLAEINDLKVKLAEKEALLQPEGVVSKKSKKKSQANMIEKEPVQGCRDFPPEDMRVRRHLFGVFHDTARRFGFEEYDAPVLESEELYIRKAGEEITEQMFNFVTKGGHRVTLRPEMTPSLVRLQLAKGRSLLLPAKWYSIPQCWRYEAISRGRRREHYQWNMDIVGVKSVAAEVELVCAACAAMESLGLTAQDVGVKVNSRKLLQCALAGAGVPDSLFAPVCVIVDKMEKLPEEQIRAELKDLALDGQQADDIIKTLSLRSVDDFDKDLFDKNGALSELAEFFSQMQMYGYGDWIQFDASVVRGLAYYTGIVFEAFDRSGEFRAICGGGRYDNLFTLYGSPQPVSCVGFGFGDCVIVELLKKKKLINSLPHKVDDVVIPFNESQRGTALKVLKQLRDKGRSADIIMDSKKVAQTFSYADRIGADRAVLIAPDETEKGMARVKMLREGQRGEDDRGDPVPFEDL

Values are the deposited “Percent Effect”, in %. The record does not define 0% and 100%; most values in the screen are far below 50% and negative numbers occur (in some assays of this library far below -100). This is an unselected part of the compounds tested. A dash means the value is not listed here; it may have been measured.

structure	CoaBC	Pks13 thioesterase	MtTrpRS	LiHisRS
Cc1nn(C)c(Cl)c1C1CCCN1C(=O)CCNc1ncccn1 (stereo not drawn)	0.7168	-24.55	-3.626	15.38
Cc1nn(C)c(C)c1CNC(=O)CCn1ncc2c(Cl)cccc21	-2.54	-8.392	2.073	10.34
CCC1CN(C(=O)c2ccc(Cl)cc2O)CCN1C(C)C (stereo not drawn)	7.018	-14.72	0.5848	15.24
CCn1cc(CN2CCCN(C(=O)C3(C)CCOCC3)CC2)cn1	3.293	-7.383	2.252	10.99
Cc1cc(C(=O)NCc2csc(N(C)C)n2)c2ccc(C)c(C)c2n1	3.086	-16.45	-1.107	16.13
CN(C(=O)CN1CCCC1=O)C1CCCN(C2Cc3ccccc3C2)C1 (stereo not drawn)	0.6031	-4.323	0.07246	12
COc1ccccc1N1CCCC(Nc2nccnc2C#N)C1 (stereo not drawn)	-0.1626	-4.392	-0.1833	22.69
O=C(O)c1csc(S(=O)(=O)N2CCN(Cc3c(F)cccc3Cl)CC2)c1	9.25	-20.68	-1.845	11.67
O=C(CN1CC(n2cccn2)C1)NCCCN1CCCC1=O	-9.211	-17.99	20.45	3.571
Cc1ccc2c(n1)N(Cc1ccncc1)CCN(S(C)(=O)=O)C2	1.014	-5.825	0.2292	2.752
CCc1cc(NCCCN(C)C2CCCC2)ncn1	7.775	-19.36	1.098	37.7
O=C1N[C@@H]2CCN(C(=O)C3CC3)[C@@H]2C(=O)N1c1ccc(F)cc1	-1.58	-23.98	4.895	19.44
CN1CCCCC1C(=O)N1CCN(c2ccccc2C#N)CC1 (stereo not drawn)	19.9	-3.479	-3.137	9.639
O=C(CC(F)(F)F)NC(c1ccc(Cl)cc1)c1ncon1 (stereo not drawn)	1.927	-40.79	2.468	10.34
CCc1nnc2n1CCN(CCS(=O)(=O)c1ccccc1)C2	2.169	-7.478	3.118	10.96
CCN(C)c1ncnc2c1CCN(C(=O)N1CCOCC1)CC2	-1.468	11.63	6.667	-9.589
Cc1cc(NCCCOC(C)C)c2nncn2n1	11.55	-33.31	3.756	10.34
Cc1nc(CN(C)C2CCN(Cc3cccc(F)c3)C2)no1 (stereo not drawn)	4.178	-30.72	1.63	15.04
CS(=O)(=O)N1CCc2ccc(C(=O)N3CCn4ncnc4C3)cc21	-8.676	-10.51	-10.81	8.054
CC(C)(CCS(C)(=O)=O)CNC(=O)NC1CCCC1(C)C (stereo not drawn)	-0.4717	1.966	-0.3079	5.495
CC1CN(C)CCN1C(=O)c1ccn(-c2cccc(F)c2)n1 (stereo not drawn)	1.419	-13.85	2.142	13.91
CC(C)[C@H]1COC(=O)N1Cc1nccn1C(C)C	-1.811	-34.93	-0.4656	15.38
CC(C)n1c2ccccc2c2c1cc(C(=O)O)n2C(=O)N(C)C	-0.2469	-21.19	-	13.64
CCCn1c(C)c(CC(=O)NC)c2c1CC(C)(C)CC2=O	4.545	-10.2	5.22	14.15
CN(C)C(=O)Cc1ccccc1NCc1cccc2cccnc12	-0.1255	-34.28	1.025	13.56
CS(=O)(=O)N1CCO[C@@H]2CN(C(=O)Cc3cccs3)CC[C@@H]2C1	1.235	-15.44	-	13.64
c1cc(CN2CCC3(CC2)COC(COCC2CC2)C3)ccn1 (stereo not drawn)	7.268	-1.931	-1.936	15.38
CC(C)c1ccc(/C=C/CC(=O)NC2CCN(C(N)=O)CC2)cc1	3.067	11.03	-1.727	13.73
CCC(C)C(=O)Nc1ccc(CCN2CCOCC2)cc1 (stereo not drawn)	5.897	-4.136	0.9181	15.66
CN(C)c1nc(CNC(=O)NC2CCc3ccccc32)cs1 (stereo not drawn)	8.434	-14.87	2.457	22.39
CN(C)C(=O)c1cn2cc(-c3cccc(Cl)c3)n(CC3CC3)c(=O)c2n1	11.04	-30.53	0.6441	6.557
O=C(NC1CC1)[C@@H]1C[C@@H]2CCN(Cc3ccoc3)C[C@@H]2O1	2.963	-9.295	-	15.45
Cc1cccnc1CN1CCN(C(=O)CCn2ccc(=O)[nH]c2=O)CC1	15.43	-31.93	-4.326	5.376
C[C@@H]1CN(C2CCOCC2)C[C@]12CCN(c1cccnc1)C2=O	-3.893	-	-5.855	-6
CC[C@@H](C)[C@H](NC(=O)NC1CCS(=O)(=O)C1)C(=O)NCc1ccncc1 (stereo partly drawn)	1.01	-3.381	-1.751	7.895

The last 2 entries again:

C[C@@H]1CN(C2CCOCC2)C[C@]12CCN(c1cccnc1)C2=O gave CoaBC: -3.893%; MtTrpRS: -5.855%; LiHisRS: -6%.
CC[C@@H](C)[C@H](NC(=O)NC1CCS(=O)(=O)C1)C(=O)NCc1ccncc1 (stereo partly drawn) gave CoaBC: 1.01%; Pks13 thioesterase: -3.381%; MtTrpRS: -1.751%; LiHisRS: 7.895%.

Source: ChEMBL document CHEMBL3988442, “University of Dundee, Small-Polar-MMV Screening Library” (2021).